Experimental data: US20060276520A1 (priority 2002, published 2006)

The chains behind the UniProt entries cited, without tags or fusion partners.
UniProt Q9NYG5, whole entry: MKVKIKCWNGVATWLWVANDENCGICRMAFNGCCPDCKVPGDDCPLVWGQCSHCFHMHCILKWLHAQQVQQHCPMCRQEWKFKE
UniProt Q9UJX6, whole entry: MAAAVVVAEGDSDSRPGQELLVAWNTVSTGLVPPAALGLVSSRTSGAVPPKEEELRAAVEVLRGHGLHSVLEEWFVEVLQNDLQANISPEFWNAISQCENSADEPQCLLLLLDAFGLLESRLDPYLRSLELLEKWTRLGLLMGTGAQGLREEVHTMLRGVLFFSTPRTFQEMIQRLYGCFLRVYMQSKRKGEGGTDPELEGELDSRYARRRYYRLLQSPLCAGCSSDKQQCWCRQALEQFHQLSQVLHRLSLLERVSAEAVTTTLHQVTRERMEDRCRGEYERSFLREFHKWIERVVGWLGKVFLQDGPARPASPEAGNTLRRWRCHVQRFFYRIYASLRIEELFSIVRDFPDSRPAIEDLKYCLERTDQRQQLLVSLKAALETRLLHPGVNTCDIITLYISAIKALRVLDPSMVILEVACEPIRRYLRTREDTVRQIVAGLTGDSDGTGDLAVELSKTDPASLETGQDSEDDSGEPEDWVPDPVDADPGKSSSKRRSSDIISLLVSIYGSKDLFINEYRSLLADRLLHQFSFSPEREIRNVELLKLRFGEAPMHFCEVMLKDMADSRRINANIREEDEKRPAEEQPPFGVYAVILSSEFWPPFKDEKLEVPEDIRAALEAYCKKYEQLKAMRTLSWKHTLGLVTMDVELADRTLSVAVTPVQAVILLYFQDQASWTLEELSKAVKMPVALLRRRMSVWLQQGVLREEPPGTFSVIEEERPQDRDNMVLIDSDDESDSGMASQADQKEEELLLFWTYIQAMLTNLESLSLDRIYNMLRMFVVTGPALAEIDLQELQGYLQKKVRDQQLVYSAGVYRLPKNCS

Molecular target: APC2/APC11 (Homo sapiens, UniProt Q9NYG5+Q9UJX6)
Experiment: Second ubiquitin assay, APC2/APC11 free in solution, products separated by size-exclusion HPLC (GEL)
Conditions: read-out: LIGASE E3 APC2/APC11 H E1/GEL IC50, gel-filtration HPLC read-out, expected mixture of 5E and 5Z isomers

O=C(O)c1ccc(-c2ccc(/C=C3\SC(=S)N(C4CCCCC4)C3=O)o2)cc1
IC50: 2 µM and 20 µM

The source holds more than one record for some entries. The list is limited to them. There may be further records. The records of an entry do not match, cause unknown; some may be repeats, others may stem from another dose, organism or construct than stated.
